PubChem BioAssay AID1259308 – NCATS – 2017
The deposit covers about 59,000 reagents; this is a part drawn at random. About 1,510 of all reagents (2.6%) were called active. 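Calls use total luciferase alone and ignore viability, so some active siRNAs may act by altering cell number.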 Unmarked entries are inactive. The numbers tell different reagents against one gene apart. Not all columns of the deposit are shown. No sequences are given here.

Aim: 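Genes whose loss raises luciferase production in HEK293 cells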 (primary screen)
System: human HEK293 embryonic kidney cells stably expressing firefly luciferase (HEK-CMV-Luc2-Hygro)
Reagents: single siRNA against human genes, 0.8 pmol siRNA per well
Duration: 72 h
Detection: 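Reporter luminescence and viable-cell signal on separate replicate plates, given as percent of non-targeting control and median/MAD z-scores, plus per-cell luciferase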
Reading the numbers: total luciferase, z-score and total luciferase, % of control: higher = more reporter protein produced
Call rule: 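Active when the median/MAD z-score for overall luciferase is greater than 3; a gene was taken forward for validation with new siRNAs if at least two of its three siRNAs passed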
Calls: active = raised luciferase; inactive = no rise

With STXBP5-AS1 #1, what was measured?
total luciferase, z-score: -0.165; total luciferase, % of control: 78.6

With STXBP5-AS1 #2, how do the results read?
total luciferase, z-score: 1.53; total luciferase, % of control: 112

How did the screen score STXBP5-AS1 #3?
total luciferase, z-score: 0.174; total luciferase, % of control: 85.3

With PWP1 #1, how do the results read?
total luciferase, z-score: -0.804; total luciferase, % of control: 65.9

For PWP1 #2, what was measured?
total luciferase, z-score: 0.214; total luciferase, % of control: 86.1

With PWP1 #3, how do the results read?
total luciferase, z-score: 0.149; total luciferase, % of control: 84.9

Which result is listed for ZNF557 #1?
total luciferase, z-score: -0.33; total luciferase, % of control: 75.3

How did the screen score ZNF557 #2?
total luciferase, z-score: 0.0342; total luciferase, % of control: 82.6

For ZNF557 #3, how do the results read?
total luciferase, z-score: -1.58; total luciferase, % of control: 50.4

What is on record for OTUD6A #1?
total luciferase, z-score: -0.897; total luciferase, % of control: 64

What did the screen give for OTUD6A #2?
total luciferase, z-score: 0.12; total luciferase, % of control: 84.3

What did the screen give for OTUD6A #3?
total luciferase, z-score: -0.0205; total luciferase, % of control: 81.5

3 consecutive entries from above, for reference:
STXBP5-AS1 #1: total luciferase, z-score = -0.165; total luciferase, % of control = 78.6
STXBP5-AS1 #2: total luciferase, z-score = 1.53; total luciferase, % of control = 112
STXBP5-AS1 #3: total luciferase, z-score = 0.174; total luciferase, % of control = 85.3

More reagents follow:
With SAMD4B #1, how do the results read?
total luciferase, z-score: 0.16; total luciferase, % of control: 85.1

What did the screen give for SAMD4B #2?
total luciferase, z-score: 0.575; total luciferase, % of control: 93.3

For SAMD4B #3, what does the deposit list?
total luciferase, z-score: 1.86; total luciferase, % of control: 119

Which result is listed for AMPD1 #1?
total luciferase, z-score: 0.366; total luciferase, % of control: 89.2

For AMPD1 #2, how do the results read?
total luciferase, z-score: 0.818; total luciferase, % of control: 98.2

What did the screen give for AMPD1 #3?
total luciferase, z-score: -1.53; total luciferase, % of control: 51.4

With GYG2 #1, what does the deposit list?
total luciferase, z-score: 2.07; total luciferase, % of control: 123

For GYG2 #2, how do the results read?
total luciferase, z-score: -0.118; total luciferase, % of control: 79.5

What is on record for GYG2 #3?
total luciferase, z-score: 0.304; total luciferase, % of control: 87.9
